# Measurements published in PubChem BioAssay (NCATS).
# Protein sequences, listed by entry. Tags and fused reporters are not part of them. Lines headed by an entry give the natural chain unless they say otherwise; changes in a name come on top.
# UniProt Q8WZA2: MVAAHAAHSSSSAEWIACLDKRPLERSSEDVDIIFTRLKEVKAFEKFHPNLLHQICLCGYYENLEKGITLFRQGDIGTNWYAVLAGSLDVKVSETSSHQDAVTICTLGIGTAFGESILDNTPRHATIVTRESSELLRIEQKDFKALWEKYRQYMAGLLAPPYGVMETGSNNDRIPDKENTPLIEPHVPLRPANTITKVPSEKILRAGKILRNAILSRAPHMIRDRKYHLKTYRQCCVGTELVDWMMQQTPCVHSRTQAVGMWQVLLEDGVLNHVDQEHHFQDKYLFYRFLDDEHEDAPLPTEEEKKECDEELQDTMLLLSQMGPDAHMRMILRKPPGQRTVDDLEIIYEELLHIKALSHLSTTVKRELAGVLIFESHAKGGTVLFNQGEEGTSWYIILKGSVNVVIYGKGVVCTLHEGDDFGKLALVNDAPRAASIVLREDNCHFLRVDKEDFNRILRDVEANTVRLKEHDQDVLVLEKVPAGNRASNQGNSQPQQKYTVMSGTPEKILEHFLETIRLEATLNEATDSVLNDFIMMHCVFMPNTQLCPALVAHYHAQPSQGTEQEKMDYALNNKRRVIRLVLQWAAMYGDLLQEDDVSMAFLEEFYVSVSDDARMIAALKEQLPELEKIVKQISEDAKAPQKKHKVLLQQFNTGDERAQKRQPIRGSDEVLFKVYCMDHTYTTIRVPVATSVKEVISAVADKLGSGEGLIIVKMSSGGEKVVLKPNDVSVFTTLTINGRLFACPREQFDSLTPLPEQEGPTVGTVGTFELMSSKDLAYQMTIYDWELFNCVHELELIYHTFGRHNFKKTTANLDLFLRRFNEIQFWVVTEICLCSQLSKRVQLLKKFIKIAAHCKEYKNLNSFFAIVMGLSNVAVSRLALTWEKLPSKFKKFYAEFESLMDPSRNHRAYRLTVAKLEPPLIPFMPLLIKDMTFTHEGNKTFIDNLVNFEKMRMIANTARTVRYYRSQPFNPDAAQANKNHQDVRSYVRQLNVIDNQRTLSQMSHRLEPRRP
# UniProt P11473: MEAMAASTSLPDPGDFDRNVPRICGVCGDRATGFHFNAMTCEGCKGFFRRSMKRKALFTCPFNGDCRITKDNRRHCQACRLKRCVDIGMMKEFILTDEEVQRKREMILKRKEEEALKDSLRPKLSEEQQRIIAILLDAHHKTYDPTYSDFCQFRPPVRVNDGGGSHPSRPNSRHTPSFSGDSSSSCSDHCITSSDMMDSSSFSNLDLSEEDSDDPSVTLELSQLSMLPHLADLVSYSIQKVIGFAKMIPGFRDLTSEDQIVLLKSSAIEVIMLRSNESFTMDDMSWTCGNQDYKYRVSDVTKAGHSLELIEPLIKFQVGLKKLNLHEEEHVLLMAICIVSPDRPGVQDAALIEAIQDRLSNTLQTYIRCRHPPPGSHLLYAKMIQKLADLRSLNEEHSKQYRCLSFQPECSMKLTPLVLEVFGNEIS
# The shares of active, inactive and inconclusive entries below differ from those in the screen. For some of these results: Potencies of inconclusive entries are doubtful fits and often do not repeat. Active and inactive are the calls of the source. The call rests on the fitted dose curve; in most records, active means well fitted curve in the direction sought with a large enough effect; inconclusive means small, poorly fitted or top-dose-only effect, or another doubt; inactive means no such curve, though single readings can be large; an effect the other way counts as inactive or inconclusive.
# Key:
# [1] = molecular target: Rap guanine nucleotide exchange factor 4 (Homo sapiens) (UniProt Q8WZA2); test: Confirmatory qHTS for agonist of cAMP-regulated guanine nucleotide exchange factor 4 (EPAC2) (AID 1645884);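 further: nucleotide exchange releases bodipy-GDP from Rap1 and this lowers its fluorescence; nearly all actives have a fitted effect of over 65% in size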; on activation: on the % scale 0 is the no-effect control and ±100 the full control effect
# [2] = molecular target: Rap guanine nucleotide exchange factor 3 (Homo sapiens) (UniProt O95398); test: Counterscreen qHTS for agonist of cAMP-regulated guanine nucleotide exchange factor 3 (EPAC1) (AID 1645889); conditions: EPAC1 Rap1B-BODIPY-GDP exchange, fluorescence; activation: at 154 µM (top of the series) unless noted; further: nearly all actives have a fitted effect of over 40% in size; on activation: % of control where 0% means no effect
# Method in brief: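 Measured: fluorescence of BODIPY-GDP bound to Rap1B, which falls as exchange proceeds. Conditions include 50 uM competing GDP, 5 and 30 min reads, and a later cAMP challenge for antagonist detection.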
# [3] = qHTS for Inhibitors of the vitamin D receptor (VDR): Hit Validation using a Texas Red Assay (AID 602201)
# Method in brief: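 Fluorescence polarization (Ex 595/Em 615 nm) of Texas Red (7 nM) with 1.5 uM VDR-LBD and LG19078 (final concentrations). Compounds were incubated for 2 hours at room temperature.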
# [4] = molecular target: Vitamin D3 receptor (Homo sapiens) (UniProt P11473); test: qHTS for Inhibitors of the vitamin D receptor (VDR): Hit Validation using a Beta-Lactamase Assay (AID 602202)
# Method in brief: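 Stably transfected HEK293 cells express a VDR–GAL4 DNA-binding-domain fusion driving a UAS beta-lactamase reporter, stimulated by agonist LG190178. Compounds were added 4 h after plating and incubated 18 h. A FRET beta-lactam substrate was then added for 2 h and cleaved substrate emission read at 447 nm.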
# [5] = qHTS for Inhibitors of the vitamin D receptor (VDR): Hit Validation using a Cytotoxicity Assay (AID 602204);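 further: cells co-treated with VDR agonist LG190178 at 300 nM; nearly all actives have a fitted effect of over 75% in size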
# Method in brief: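 Using cycloheximide at high concentration as positive control and DMSO as negative, cells plated at 20,000 per well (4 h) are exposed to compounds for 18 h; ATP luminescence is read after 30 min.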
# [6] = molecular target: Rap guanine nucleotide exchange factor 4 (Homo sapiens) (UniProt Q8WZA2); test: Confirmatory qHTS for antagonist of cAMP-regulated guanine nucleotide exchange factor 4 (EPAC2) (AID 1645885); conditions: activity change, negative = inhibition: at 12.7 µM (top of the series) unless noted; further: nearly all actives have a fitted effect of over 25% in size
# Potency means the concentration at half of the fitted maximal effect.
smiles,measurement,setting,value
C=CC[C@@H](CC(=O)OC(C)(C)C)C(=O)OC[C@@H]1CCCN1C(=O)[C@@H](CC=C)CC(=O)N(CCO)Cc1ccccc1,Potency,[1],"inconclusive: 79.4 µM [activator, single point]"
same,Potency,[2],"inconclusive: 112 µM [activator, single point]"
OC(c1ccc2ccccc2n1)c1c(Cl)cccc1Cl (centres undefined),Potency,[1],"inconclusive: 126 µM [activator, partial curve, poor fit]"
same,Potency,[2],"inconclusive: 5.62 µM [activator, full curve, poor fit]"
COc1ccc(C(=O)c2oc3ccccc3c2NC(=O)c2cc(=O)c3ccc(C)cc3o2)cc1Cl,Potency,[1],"inconclusive: 56.2 µM [activator, partial curve, poor fit]"
same,Potency,[2],"inconclusive: 35.5 µM [activator, partial curve]"
COc1cc2c(cc1NC(=O)C(C)Oc1ccc(Cl)cc1Cl)oc1ccccc12 (centres undefined),Potency,[1],"inconclusive: 50.1 µM [activator, single point]"
same,activation,[2],inconclusive: 68.3% [activator]
CCCCN(Cc1ccc(C(=O)N[C@H](C(=O)O)C(C)C)cc1)C(=O)C(c1ccccc1)c1ccccc1,activation,[1],"inactive: 8.93% [at 17.1 µM, percent relative to cAMP agonist control]"
same,activation,[2],inconclusive: 47.8% [activator] [at 30.8 µM]
CCOC(=O)Nc1ccccc1C(=O)Nc1cc(C)cc(C)c1,Potency,[1],"inconclusive: 100 µM [activator, partial curve, poor fit]"
same,Potency,[2],active: 0.631 µM
COCCOC(=O)c1c(-c2ccccc2)c(-c2ccccc2)nn(C)c1=O,Potency,[1],"inconclusive: 50.1 µM [activator, single point]"
same,activation,[2],inconclusive: 30.2% [activator]
COc1ccccc1NC(=O)Cc1ccc(-c2ccccc2)cc1,Potency,[1],"inconclusive: 70.8 µM [activator, partial curve, poor fit]"
same,Potency,[2],inactive
CC(NC(=O)c1ccc(Br)s1)c1ccncc1 (centres undefined),Potency,[1],"inconclusive: 56.2 µM [activator, full curve]"
same,Potency,[2],"inconclusive: 100 µM [activator, single point]"
O=C(CCSc1nc2ccccc2o1)N1CCOCC1,activation,[1],"inactive: 0.888% [at 17.1 µM, percent relative to cAMP agonist control]"
same,activation,[2],inconclusive: 35.6% [activator] [at 30.8 µM]
O=C1NC(=O)C2(CCC(C(=O)O)C2)N1 (centres undefined),activation,[1],"inactive: 11.7% [at 17.1 µM, percent relative to cAMP agonist control]"
same,activation,[2],inconclusive: 58.7% [activator] [at 30.8 µM]
CSc1nc(N2CCOCC2)c2c3c(sc2n1)CCCC3,Potency,[1],inactive
same,Potency,[2],inactive
COc1ccc(OCC(=O)NCCC2=CCCCC2)c([N+](=O)[O-])c1,activation,[1],"inactive: 7.73% [at 17.1 µM, percent relative to cAMP agonist control]"
same,activation,[2],inconclusive: 35.9% [activator] [at 30.8 µM]
COc1ccc(N2CCN(C(=O)c3cc(C)on3)CC2)cc1,Potency,[1],inactive
same,Potency,[2],inactive
COc1cc([N+](=O)[O-])ccc1-c1ccc(/C=C2\C(=O)ON=C2c2ccccc2)o1,Potency,[3],active: 3.16 µM
same,Potency,[4],"inconclusive: 23.1 µM [inhibitor, single point]"
same,Potency,[5],"inconclusive: 18.9 µM [cytotoxic, single point]"
same,Potency,[1],"inconclusive: 100 µM [activator, partial curve, poor fit]"
COc1ccc(Br)cc1CN(C)CC(=O)Nc1c(Cl)cccc1Cl,Potency,[1],"inconclusive: 89.1 µM [activator, partial curve, poor fit]"
same,activation,[2],inconclusive: 34.1% [activator]
Cc1ccc(C(=O)Nc2sc(C)c(C)c2C(=O)c2ccccc2)cc1,activation,[1],"inactive: 4.34% [at 17.1 µM, percent relative to cAMP agonist control]"
same,activation,[2],inactive: -4.34% [at 30.8 µM]
CC(Oc1ccccc1)C(=O)Nc1nnc(S(=O)(=O)N2CCCCC2)s1 (centres undefined),Potency,[1],inactive
same,Potency,[2],inactive
COC1=CC(=O)c2c(ccc3ncnc(N)c23)C1=O,Potency,[6],active: 26.9 µM
COc1cccc(C(=O)C2=NN(C(C)=O)CC2c2ccco2)c1 (centres undefined),Potency,[1],inactive
same,Potency,[2],"inconclusive: 0.251 µM [activator, full curve, poor fit]"
CC(=O)C[C@H]1SC[C@@H](C(C)C)N1S(=O)(=O)c1ccc(C)cc1,Potency,[1],inactive
same,activation,[2],inconclusive: 42.9% [activator]
COC(=O)c1ccc(NC(=O)CCOc2ccccc2)cc1,Potency,[1],inactive
same,Potency,[2],inactive
Nc1c(-c2nc(-c3cccs3)no2)nnn1-c1cccc(Cl)c1,outcome,[6],inactive [at 12.7 µM]
Cc1ccc([N+](=O)[O-])cc1S(=O)(=O)N1CCC(C)CC1,Potency,[1],inactive
same,Potency,[2],inactive
O=C1S/C(=C\c2ccc(O)c([N+](=O)[O-])c2)C(=O)N1c1ccccc1Cl,Potency,[6],active: 47.8 µM

# Part of the list above in another layout.
smiles	measurement	setting	value
C=CC[C@@H](CC(=O)OC(C)(C)C)C(=O)OC[C@@H]1CCCN1C(=O)[C@@H](CC=C)CC(=O)N(CCO)Cc1ccccc1	Potency	[1]	inconclusive: 79.4 µM [activator, single point]
same	Potency	[2]	inconclusive: 112 µM [activator, single point]
OC(c1ccc2ccccc2n1)c1c(Cl)cccc1Cl (centres undefined)	Potency	[1]	inconclusive: 126 µM [activator, partial curve, poor fit]
same	Potency	[2]	inconclusive: 5.62 µM [activator, full curve, poor fit]
COc1ccc(C(=O)c2oc3ccccc3c2NC(=O)c2cc(=O)c3ccc(C)cc3o2)cc1Cl	Potency	[1]	inconclusive: 56.2 µM [activator, partial curve, poor fit]
same	Potency	[2]	inconclusive: 35.5 µM [activator, partial curve]
COc1cc2c(cc1NC(=O)C(C)Oc1ccc(Cl)cc1Cl)oc1ccccc12 (centres undefined)	Potency	[1]	inconclusive: 50.1 µM [activator, single point]
same	activation	[2]	inconclusive: 68.3% [activator]
CCCCN(Cc1ccc(C(=O)N[C@H](C(=O)O)C(C)C)cc1)C(=O)C(c1ccccc1)c1ccccc1	activation	[1]	inactive: 8.93% [at 17.1 µM, percent relative to cAMP agonist control]
same	activation	[2]	inconclusive: 47.8% [activator] [at 30.8 µM]
CCOC(=O)Nc1ccccc1C(=O)Nc1cc(C)cc(C)c1	Potency	[1]	inconclusive: 100 µM [activator, partial curve, poor fit]
same	Potency	[2]	active: 0.631 µM
COCCOC(=O)c1c(-c2ccccc2)c(-c2ccccc2)nn(C)c1=O	Potency	[1]	inconclusive: 50.1 µM [activator, single point]
same	activation	[2]	inconclusive: 30.2% [activator]
